Article PMC5819684
No constants are given. Whether binding was seen depends on the method and setting. In cells and extracts the contact can be indirect. Sequences can lack the tags named with a protein.

The chains behind the UniProt entries cited, without tags or fusion partners.
UniProt Q9BXW9: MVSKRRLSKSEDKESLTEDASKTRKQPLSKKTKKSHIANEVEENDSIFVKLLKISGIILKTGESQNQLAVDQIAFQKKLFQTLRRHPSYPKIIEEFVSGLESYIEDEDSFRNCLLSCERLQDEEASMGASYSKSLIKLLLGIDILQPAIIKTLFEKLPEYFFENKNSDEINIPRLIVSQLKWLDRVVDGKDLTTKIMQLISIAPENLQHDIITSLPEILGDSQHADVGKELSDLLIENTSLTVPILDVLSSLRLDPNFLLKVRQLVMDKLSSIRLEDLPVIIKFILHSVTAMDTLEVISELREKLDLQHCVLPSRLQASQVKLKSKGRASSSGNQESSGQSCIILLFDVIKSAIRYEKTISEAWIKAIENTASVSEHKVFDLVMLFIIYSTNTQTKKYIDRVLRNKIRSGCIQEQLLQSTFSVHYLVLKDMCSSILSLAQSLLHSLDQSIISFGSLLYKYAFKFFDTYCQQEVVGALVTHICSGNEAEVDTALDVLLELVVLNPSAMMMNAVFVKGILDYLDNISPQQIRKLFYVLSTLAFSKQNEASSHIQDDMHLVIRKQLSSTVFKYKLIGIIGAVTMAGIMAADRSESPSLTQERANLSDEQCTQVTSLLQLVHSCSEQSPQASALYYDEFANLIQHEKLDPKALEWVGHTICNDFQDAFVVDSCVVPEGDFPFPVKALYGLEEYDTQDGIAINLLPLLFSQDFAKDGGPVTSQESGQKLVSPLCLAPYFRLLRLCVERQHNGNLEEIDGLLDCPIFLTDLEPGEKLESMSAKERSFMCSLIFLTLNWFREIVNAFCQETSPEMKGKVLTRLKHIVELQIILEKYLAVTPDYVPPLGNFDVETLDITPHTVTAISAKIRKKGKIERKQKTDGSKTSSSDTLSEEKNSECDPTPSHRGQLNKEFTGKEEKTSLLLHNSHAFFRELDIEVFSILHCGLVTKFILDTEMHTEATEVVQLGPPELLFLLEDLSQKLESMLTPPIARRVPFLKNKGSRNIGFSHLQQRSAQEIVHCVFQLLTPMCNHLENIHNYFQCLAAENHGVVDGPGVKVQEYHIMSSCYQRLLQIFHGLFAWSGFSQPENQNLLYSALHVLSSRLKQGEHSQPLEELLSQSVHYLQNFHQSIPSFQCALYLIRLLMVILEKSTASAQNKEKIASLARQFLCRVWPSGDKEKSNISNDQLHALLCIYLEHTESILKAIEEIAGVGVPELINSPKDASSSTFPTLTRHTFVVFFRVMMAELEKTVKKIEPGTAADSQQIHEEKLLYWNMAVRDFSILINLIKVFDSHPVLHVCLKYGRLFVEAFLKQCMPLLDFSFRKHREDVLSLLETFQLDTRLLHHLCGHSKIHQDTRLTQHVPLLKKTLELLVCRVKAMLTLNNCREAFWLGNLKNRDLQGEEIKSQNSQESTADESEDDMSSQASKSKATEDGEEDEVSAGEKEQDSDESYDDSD

Target: T1, HA-HES1 (Hairy Enhancer of Split 1) (UniProt Q14469)
T1 sequence: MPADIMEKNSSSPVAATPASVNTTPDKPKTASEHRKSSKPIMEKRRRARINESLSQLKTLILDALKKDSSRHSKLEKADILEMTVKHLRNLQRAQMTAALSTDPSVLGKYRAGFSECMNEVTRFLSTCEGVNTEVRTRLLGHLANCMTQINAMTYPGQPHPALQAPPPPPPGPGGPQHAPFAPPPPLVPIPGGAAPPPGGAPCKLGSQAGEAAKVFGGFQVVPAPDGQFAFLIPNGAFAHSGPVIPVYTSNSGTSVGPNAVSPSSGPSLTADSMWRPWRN
Assay: co-IP; anti-HA immunoprecipitation from whole cell lysates of 293T cells transfected with HA-HES1 and Myc-tagged ubiquitin K48R (pCW8); 2 µg antibody overnight at 4 °C, protein-G magnetic beads; blotted for HES1 and FANCD2

Substance: FANCD2 (Fanconi anemia D2) (from UniProt Q9BXW9 1-1451)
- binding: no binding
